According to PubChem BioAssay AID488837 (National Center for Advancing Translational Sciences (NCATS), 2010):
Out of some 330,000 compounds screened, about 20 (0.006%) were called active. Inconclusive means that the source gave no clear call. Such entries were picked first, then a sample of the others. Calls come from the whole dose curve; as a rule, active = well fitted inhibition curve with a large enough effect; inconclusive = small, poorly fitted or top-dose-only effect, or effect the other way; inactive = flat fitted curve, though single readings scatter. Potencies of inconclusive entries are doubtful fits and often do not repeat.

Sequences of proteins named here, by UniProt entry; tags and fusion partners are left off. A change or cut given only in a name is not applied to a line headed by its entry.
UniProt O00167: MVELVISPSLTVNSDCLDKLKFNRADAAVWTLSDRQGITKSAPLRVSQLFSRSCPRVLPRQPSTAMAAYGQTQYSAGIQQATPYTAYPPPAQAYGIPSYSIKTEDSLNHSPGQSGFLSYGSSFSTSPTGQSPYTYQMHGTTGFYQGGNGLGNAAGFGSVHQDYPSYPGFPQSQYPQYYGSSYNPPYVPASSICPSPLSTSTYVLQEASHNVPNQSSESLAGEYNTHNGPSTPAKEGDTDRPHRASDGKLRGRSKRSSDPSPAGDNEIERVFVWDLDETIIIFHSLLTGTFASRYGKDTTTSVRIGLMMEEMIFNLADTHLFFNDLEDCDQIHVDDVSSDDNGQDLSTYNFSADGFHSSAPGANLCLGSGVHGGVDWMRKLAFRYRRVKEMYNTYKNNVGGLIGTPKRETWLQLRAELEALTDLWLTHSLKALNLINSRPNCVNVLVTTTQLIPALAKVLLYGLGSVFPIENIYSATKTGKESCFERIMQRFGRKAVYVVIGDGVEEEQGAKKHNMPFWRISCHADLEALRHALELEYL

molecular target: Protein phosphatase EYA2 (Homo sapiens) (UniProt O00167); experiment: qHTS Assay for Inhibitors of the Phosphatase Activity of Eya2; conditions: recombinant Eya2, OMFP fluorescence dephosphorylation (OMFP is methylfluorescein phosphate); activity, negative = inhibition: at 76.9 µM (top of the series) unless noted
Outline: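 Eya2 (0.2 uM) preincubated 10 min at ambient with compound, then OMFP substrate added at 50 uM; 10 min reaction in 50 mM HEPES pH 7.5, 50 mM NaCl, 5 uM MgCl2, 0.05% BSA, 1 mM DTT. Fluorescence read at Ex 485/Em 525 nm.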
% is set by controls: 0 for no effect and ±100 for the full control effect; potency is the fitted concentration of half-maximal effect.

Row | SMILES | Potency | activity, negative = inhibition
1 | CCOc1cccc2sc(N(CCN(C)C)C(=O)c3ccc4ccccc4c3)nc12 | inconclusive: 25.1 µM [inhibitor, single point] | 
2 | COc1cc([N+](=O)[O-])cc(/C=N/NC(=O)c2cc(-c3ccccc3)nc3ccccc23)c1O |  | inactive: -9.37%
3 | COc1ccc(OC)c(NC(=O)CCN2CCN(C)CC2)c1 | inconclusive: 100 µM [inhibitor, single point] | 
4 | COc1ccc(NC(=O)CN2C(=O)C(C)SC(C)C2=O)c(OC)c1 (centres undefined) | inconclusive: 17.8 µM [inhibitor, single point] | 
5 | Nc1nnc(CSCc2ccccc2Cl)s1 |  | inactive: 4.03%
6 | NCC1OC(O[C@H]2[C@H](O)[C@@H](OC3C(O)C(N)CC(N)C3OC3OC(CO)C(O)C(O)C3N)O[C@@H]2CO)C(N)C(O)C1O (some centres undefined) |  | inactive: -6.2%
7 | CCCNc1nc(Cl)nc(NCc2cccnc2)n1 | inconclusive: 631 µM [inhibitor, single point] | 
8 | CCOc1cc(/C=N/N=C2/NC(=O)C(CC(=O)O)S2)ccc1OCc1ccccc1Cl (centres undefined) | inconclusive: 89.1 µM [inhibitor, single point] | 
9 | O=C(c1cccc([N+](=O)[O-])c1)N1CCCC(C(=O)N2CCCCC2)C1 (centres undefined) | inconclusive: 20 µM [inhibitor, single point] | 
10 | O=C(CCC(=O)N1CCOc2ccccc21)N1CCOCC1 | inconclusive: 20 µM [inhibitor, single point] | 
11 | COc1cccc(Oc2c(C)oc3c(CN4CCCCC4)c(O)ccc3c2=O)c1 |  | inactive: -17.4%
12 | Cc1ccc(-c2csc(NC(=O)C3=NN(C4CCS(=O)(=O)C4)C(=O)CC3)n2)cc1 (centres undefined) | inconclusive: 100 µM [inhibitor, single point] | 
13 | Cc1cccc(C(=O)Nc2c(C(=O)N(C)C)cnn2-c2ccccc2)c1 | inconclusive: 15.8 µM [inhibitor, partial curve, poor fit] | 
14 | O=C(CNC(=O)c1ccccc1O)N/N=C/c1cc(Br)ccc1OC(=O)/C=C/c1ccco1 |  | inactive: 7.42%
15 | Cn1ncc(Cl)c1C(=O)NC(=S)Nc1sc2c(c1C#N)CCCCC2 | inconclusive: 708 µM [inhibitor, partial curve, poor fit] | 
16 | CCOC(=O)c1cnn(-c2nc(-c3ccccc3F)cs2)c1C(F)(F)F |  | inactive: -6.04%
17 | COc1ccc(CC(=O)Nc2ccc(-c3cn4ccccc4n3)cc2)cc1OC |  | inactive: -23.4%
18 | COc1ccc(NC(=O)C2CCCN2C(=O)NC2CCCCC2)cc1 (centres undefined) | inconclusive: 200 µM [inhibitor, partial curve] | 
19 | C/C(=N\NC(=O)c1ccc(N/N=C(\C)c2ccc(O)cc2)cc1)c1ccc(O)cc1 | inconclusive: 100 µM [inhibitor, single point] | 
20 | Cc1nnc(NC(=O)c2sc3nc(-c4cccs4)cc(C(F)(F)F)c3c2N)s1 |  | inactive: 21%
21 | O=C1/C(=C\c2ccc(O)c(O)c2)SC(=S)N1Cc1ccccc1 | inconclusive: 79.4 µM [activator, partial curve, poor fit] | 
22 | CCOC(=O)C1(CCCc2ccccc2)CCN(S(=O)(=O)N(C)C)CC1 | inconclusive: 25.1 µM [inhibitor, single point] | 

Taken from the listing (2 entries):
Row | SMILES | Potency | activity, negative = inhibition
1 | CCOc1cccc2sc(N(CCN(C)C)C(=O)c3ccc4ccccc4c3)nc12 | inconclusive: 25.1 µM [inhibitor, single point] | 
2 | COc1cc([N+](=O)[O-])cc(/C=N/NC(=O)c2cc(-c3ccccc3)nc3ccccc23)c1O |  | inactive: -9.37%

Later entries

Row | SMILES | Potency | activity, negative = inhibition
23 | C/C(=N/Nc1nc(-c2ccccc2)c(CC(=O)O)s1)c1ccccc1 | inconclusive: 22.4 µM [inhibitor, single point] | 
24 | CN(C)CCNC(=O)C(=O)Nc1ccc2c(c1)N(S(=O)(=O)c1cccs1)CCC2 |  | inactive: 15.4%
25 | CN(C)S(=O)(=O)c1ccc(NC(=O)c2ccc3ncsc3c2)cc1 | inconclusive: 17.8 µM [inhibitor, single point] | 
26 | COc1ccc(Oc2cccc(Cl)c2CNC(=O)CCCC(=O)O)cc1 | inconclusive: 112 µM [inhibitor, single point] | 
27 | CCN(CC)S(=O)(=O)c1ccc(N/N=C(\C)c2ccc(OC)cc2O)nc1 | inconclusive: 200 µM [inhibitor, partial curve, poor fit] | 
28 | O=C(Nc1nc(-c2ccccn2)cs1)c1cc2ccccc2o1 |  | inactive: 5.54%
29 | O=C(O)c1cccc(NC(=O)c2ccc3c(c2)C(=O)N(CC2CCCO2)C3=O)c1 (centres undefined) |  | inactive: 4.42%
30 | CCCn1cc(S(=O)(=O)c2ccc(C)cc2)c(=O)c2cc(OC)ccc21 | inconclusive: 22.4 µM [inhibitor, single point] | 
31 | Cc1ccc(OC(=O)CCC(=O)Nc2ccc(S(=O)(=O)Nc3cc(C)on3)cc2)cc1 |  | inactive: -4.81%
32 | COc1cc(/C=N/Nc2nc3ccccc3s2)cc([N+](=O)[O-])c1O | inconclusive: 100 µM [inhibitor, single point] | 
33 | C[C@@H]1NC(=O)N(c2ccc(F)cc2)C1=O | inconclusive: 447 µM [inhibitor, single point] | 
34 | C/C(=C\C(=O)c1ccc(C)o1)Nc1ccc2c(c1)OCO2 |  | inactive: -0.419%
35 | CCN(CC)c1ccc(/C=N/Nc2cccc(C)c2)c(O)c1 |  | inactive: 8.66%
36 | Cc1ccc(NS(=O)(=O)c2ccc(C(=O)OCC(=O)Nc3cc(C)on3)cc2)cc1 |  | inactive: -11.1%
37 | Cc1ccc(C2C(C#N)=C(N)SC(N)=C2C#N)c(C)c1 | inconclusive: 50.1 µM [activator, partial curve] | 
38 | Cc1cc(C(=O)COC(=O)c2ccc(O)cc2O)c(C)n1C(C)C | inconclusive: 158 µM [inhibitor, partial curve] | 
39 | CCC(=O)N(C)CCc1cc2c(c(OC)c1/C=N/NC(=O)[C@H]1C[C@@H]1c1ccccc1)OCO2 | inconclusive: 112 µM [inhibitor, partial curve, poor fit] | 
40 | O=C(CCC(=O)OCC(=O)c1ccc(-c2ccccc2)cc1)Nc1cccc(Cl)c1 | inconclusive: 126 µM [inhibitor, partial curve] | 
41 | c1ccc(Oc2nc(-c3ccccn3)nc3ccccc23)cc1 | inconclusive: 50.1 µM [inhibitor, partial curve, poor fit] | 
42 | COC(=O)C1=C(NC(=O)c2cccs2)CCS1 | inconclusive: 89.1 µM [inhibitor, single point] | 
43 | CCOC(=O)N1CCN(Cc2nc(-c3cccc(C)c3)no2)CC1 |  | inactive: -36.5%
44 | NC(CO)c1cn([C@@H](CCC(=O)O)C(=O)N2CCNCC2)nn1 (some centres undefined) | inconclusive: 63.1 µM [inhibitor, partial curve] | 
